Experimental data: PubChem BioAssay AID1259254 (NCATS, 2017)
The deposit covers about 59,000 reagents; this is a part drawn at random. Over the whole deposit, about 1,550 (2.6%) were called active. 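G2 share is only a proxy for re-replication; each gene was hit by three separate siRNAs, and active genes were retested.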 Raw values vary from plate to plate and are shown uncorrected. Reagents against one gene are numbered here. Not stated in the record: the amount of reagent.

- Purpose: 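Gene knock-downs that lead to re-replication, shown by excess G2 DNA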 (primary screen)
- System: human HCT116 colorectal cancer cells
- Reagent: single siRNA against human genes
- Time to read-out: 3 days
- Detection: 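Nuclei stained with Hoechst and imaged; cell-cycle phase assigned by DNA content; G2 share scaled per plate, non-targeting siRNA 0%, GMNN siRNA 100%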
- Scale: G2 robust z-score and G2 cells, % of GMNN control: higher = more G2 cells, more excess DNA replication; raw share of cells in G2: higher = larger share of cells with G2 DNA content
- Rule for the call: 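Active siRNAs have a G2 robust z of 5 or more median absolute deviations over the median, which in these data means about 38% or higher of GMNN control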

gene	siRNA no.	G2 robust z-score	G2 cells, % of GMNN control	raw share of cells in G2 (%)	outcome
SPRED2 (GeneID 200734)	1	-1.13	-4.99	3.58	inactive
SPRED2 (GeneID 200734)	2	0.326	5.26	6.63	inactive
SPRED2 (GeneID 200734)	3	-0.879	-3.22	3.35	inactive
MPND (GeneID 84954)	1	-0.498	-0.533	3.86	inactive
MPND (GeneID 84954)	2	0.507	6.53	5.05	inactive
MPND (GeneID 84954)	3	0.068	3.45	4.02	inactive
DOCK8 (GeneID 81704)	1	-0.633	-1.49	4.81	inactive
DOCK8 (GeneID 81704)	2	-0.718	-2.08	3.44	inactive
DOCK8 (GeneID 81704)	3	1.49	13.4	9.77	inactive
THAP7 (GeneID 80764)	1	-0.534	-0.791	4.49	inactive
THAP7 (GeneID 80764)	2	7.05	52.6	27.3	active
THAP7 (GeneID 80764)	3	1.58	14.1	9.29	inactive
UMPS (GeneID 7372)	1	1.44	13.1	11.1	inactive
UMPS (GeneID 7372)	2	-0.775	-2.49	3.66	inactive
UMPS (GeneID 7372)	3	-0.903	-3.38	3	inactive
SETD1B (GeneID 23067)	1	0.153	4.04	6.57	inactive
SETD1B (GeneID 23067)	2	1.39	12.8	9.4	inactive
SETD1B (GeneID 23067)	3	-0.82	-2.8	2.13	inactive
ATP6V1B1 (GeneID 525)	1	0.3	5.08	7.14	inactive
ATP6V1B1 (GeneID 525)	2	-0.544	-0.857	4.49	inactive
ATP6V1B1 (GeneID 525)	3	3.21	25.6	14.3	inactive
ALDH18A1 (GeneID 5832)	1	0.201	4.38	7.05	inactive
ALDH18A1 (GeneID 5832)	2	-1.2	-5.5	3.56	inactive
ALDH18A1 (GeneID 5832)	3	-0.462	-0.28	3.93	inactive
COPS6 (GeneID 10980)	1	-0.24	1.28	5.49	inactive
COPS6 (GeneID 10980)	2	-0.869	-3.14	2.84	inactive
COPS6 (GeneID 10980)	3	0.455	6.17	5.48	inactive
SNF8 (GeneID 11267)	1	-0.542	-0.844	4.65	inactive
SNF8 (GeneID 11267)	2	3.5	27.6	15.5	inactive
SNF8 (GeneID 11267)	3	-0.341	0.57	3.39	inactive
COP1 (GeneID 64326)	1	5.07	38.6	18.2	active
COP1 (GeneID 64326)	2	3.18	25.4	16.2	inactive
COP1 (GeneID 64326)	3	0.978	9.85	7.83	inactive
PDE3A (GeneID 5139)	1	1.16	11.1	8.4	inactive
PDE3A (GeneID 5139)	2	0.119	3.8	4.64	inactive
PDE3A (GeneID 5139)	3	2.46	20.3	10.4	inactive
POLL (GeneID 27343)	1	-1.36	-6.62	1.99	inactive
POLL (GeneID 27343)	2	-0.22	1.42	4.45	inactive
POLL (GeneID 27343)	3	-0.0831	2.38	7.24	inactive
SYTL2 (GeneID 54843)	1	0.866	9.06	5.99	inactive
SYTL2 (GeneID 54843)	2	-1.56	-8.04	2.28	inactive
SYTL2 (GeneID 54843)	3	-0.937	-3.63	2.49	inactive
NEIL1 (GeneID 79661)	1	-0.802	-2.67	3.23	inactive
NEIL1 (GeneID 79661)	2	0.3	5.08	6.67	inactive
NEIL1 (GeneID 79661)	3	-0.618	-1.38	4.85	inactive
SMG7 (GeneID 9887)	1	1.21	11.5	10.5	inactive
SMG7 (GeneID 9887)	2	-0.956	-3.76	2.38	inactive
SMG7 (GeneID 9887)	3	-0.384	0.267	3.5	inactive
LINC00632 (GeneID 286411)	1	1.03	10.2	7.37	inactive
LINC00632 (GeneID 286411)	2	3.51	27.7	13.7	inactive
LINC00632 (GeneID 286411)	3	-0.125	2.09	3.9	inactive
PRSS56 (GeneID 646960)	1	1.23	11.6	7.52	inactive
PRSS56 (GeneID 646960)	2	0.136	3.92	4.29	inactive
PRSS56 (GeneID 646960)	3	3.44	27.2	14	inactive
ERLIN1 (GeneID 10613)	1	-0.89	-3.29	3.69	inactive
ERLIN1 (GeneID 10613)	2	0.858	9	7.85	inactive
ERLIN1 (GeneID 10613)	3	-0.275	1.03	3.56	inactive
DHDH (GeneID 27294)	1	1.04	10.3	7.6	inactive
DHDH (GeneID 27294)	2	-0.557	-0.954	3.68	inactive
DHDH (GeneID 27294)	3	0.365	5.54	8.67	inactive
HTR7 (GeneID 3363)	1	0.877	9.14	9.11	inactive
HTR7 (GeneID 3363)	2	-1.13	-4.97	2.78	inactive
HTR7 (GeneID 3363)	3	-0.334	0.614	3.46	inactive
SURF1 (GeneID 6834)	1	-0.167	1.8	5.93	inactive
SURF1 (GeneID 6834)	2	-1.06	-4.47	2.12	inactive
SURF1 (GeneID 6834)	3	-0.164	1.81	3.99	inactive
ABHD4 (GeneID 63874)	1	-0.597	-1.23	5.08	inactive
ABHD4 (GeneID 63874)	2	0.711	7.97	7.1	inactive
ABHD4 (GeneID 63874)	3	1.27	11.9	8.68	inactive
C17orf58 (GeneID 284018)	1	0.171	4.17	5.16	inactive
C17orf58 (GeneID 284018)	2	-0.0323	2.74	4.1	inactive
C17orf58 (GeneID 284018)	3	0.639	7.46	5.54	inactive
FFAR1 (GeneID 2864)	1	1.49	13.4	9.6	inactive
FFAR1 (GeneID 2864)	2	3.58	28.1	13.5	inactive
FFAR1 (GeneID 2864)	3	-0.592	-1.2	4.22	inactive
ANG (GeneID 283)	1	5.31	40.3	19.4	active
ANG (GeneID 283)	2	0.344	5.39	6.55	inactive
ANG (GeneID 283)	3	7.25	54	24.1	active
ABCE1 (GeneID 6059)	1	3.93	30.6	15.5	inactive
ABCE1 (GeneID 6059)	2	-0.167	1.79	5.36	inactive
ABCE1 (GeneID 6059)	3	0.237	4.64	5.69	inactive
OR2Y1 (GeneID 134083)	1	-0.49	-0.481	3.99	inactive
OR2Y1 (GeneID 134083)	2	1.11	10.7	6.51	inactive
OR2Y1 (GeneID 134083)	3	-0.124	2.09	3.34	inactive
CPNE3 (GeneID 8895)	1	-1.71	-9.07	1.46	inactive
CPNE3 (GeneID 8895)	2	-0.91	-3.44	4.06	inactive
CPNE3 (GeneID 8895)	3	-0.554	-0.933	4.11	inactive

Not a retest: an excerpt of the list.
gene	siRNA no.	G2 robust z-score	G2 cells, % of GMNN control	raw share of cells in G2 (%)	outcome
SPRED2 (GeneID 200734)	2	0.326	5.26	6.63	inactive
SPRED2 (GeneID 200734)	3	-0.879	-3.22	3.35	inactive
MPND (GeneID 84954)	1	-0.498	-0.533	3.86	inactive
MPND (GeneID 84954)	2	0.507	6.53	5.05	inactive
